Source: article PMC9563440
Where a chain is given by its changes, count along the chain named. These are yes or no findings as the source states them, for the method shown. In cells and extracts the contact can be indirect. Some binding calls cover weakened binding; strength is not graded here. For some assays here: Tags and fused reporters may be left off the sequences shown.

By UniProt entry, the sequences of proteins in these tests, tags left out.
UniProt P56539: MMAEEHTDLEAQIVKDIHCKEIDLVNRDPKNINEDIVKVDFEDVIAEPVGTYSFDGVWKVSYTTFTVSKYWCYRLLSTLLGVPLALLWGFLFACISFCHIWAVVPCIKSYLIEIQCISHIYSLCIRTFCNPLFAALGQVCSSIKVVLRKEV

Columns and labels:
[1] = target: T1, caveolin-3 (Cav-3), rat heart (rat (endogenous in left ventricle tissue)) (UniProt P51638); assay: co-IP; rat left ventricle tissue lysates (RIPA buffer), 50 ug lysate immunoprecipitated with 1 ug anti-Cav-3 or anti-Nav1.5 overnight, protein A/G-agarose 4 h at 4 °C, Western blot; normal hearts and hearts after I/R, with scramble or PIASy shRNA
T1 sequence: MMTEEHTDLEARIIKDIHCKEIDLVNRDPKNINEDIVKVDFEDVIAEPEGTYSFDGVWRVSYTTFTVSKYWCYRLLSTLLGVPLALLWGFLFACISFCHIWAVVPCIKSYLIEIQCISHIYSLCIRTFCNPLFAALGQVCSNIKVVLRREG

[2] = target: T2, Flag-tagged Cav-3 (human Cav-3) (human) (UniProt P56539); assay: co-IP; lysates of HEK293 cells 48 h after co-transfection with Cav-3, Nav1.5 and SUMO machinery (SUMO2/3, ubc9, PIASy); immunoprecipitated with anti-Cav-3 (or anti-Nav1.5), protein A/G-agarose, Western blot
T2 sequence: T1 sequence with T3A, R12Q, I14V, E49V, R59K, N142S, R149K, G151V

Substance | binding [1] | binding [2]
voltage-gated sodium channel 1.5 (Nav1.5), rat heart (from UniProt P15389 1-2019) | binds | 
wild-type (WT) human Nav1.5 (from UniProt Q14524 1-2016) |  | binds
